Measured values: publication PMC9839844, “PPDPF Promotes the Development of Mutant KRAS‐Driven Pancreatic Ductal Adenocarcinoma by Regulating the GEF Activity of SOS1” (Advanced Science, 2022)
These are yes or no findings as the source states them, for the method shown. Binding seen in cells or lysates may run through a third protein. Some binding calls cover weakened binding; strength is not graded here.

T1: PPDPF, endogenous, Miapaca2 cells (human (endogenous in Miapaca2)) (UniProt Q9H3Y8)
T1 sequence: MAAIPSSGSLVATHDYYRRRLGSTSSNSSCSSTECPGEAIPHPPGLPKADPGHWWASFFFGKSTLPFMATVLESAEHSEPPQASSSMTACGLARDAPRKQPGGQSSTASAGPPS

T2: PPDPF (pancreatic progenitor cell differentiation and proliferation factor), exogenous, in 293T cells (UniProt Q9H3Y8)
T2 sequence: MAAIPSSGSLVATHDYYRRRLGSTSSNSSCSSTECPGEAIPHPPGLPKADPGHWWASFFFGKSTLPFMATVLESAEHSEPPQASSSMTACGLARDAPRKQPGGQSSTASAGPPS


What was measured:
[1] = molecular target: T1, PPDPF, endogenous, Miapaca2 cells (human (endogenous in Miapaca2)); assay: co-IP; endogenous proteins in Miapaca2 cells; IP with PPDPF or SOS1 antibody
[2] = molecular target: T2, PPDPF (pancreatic progenitor cell differentiation and proliferation factor), exogenous, in 293T cells; assay: co-IP; exogenous proteins in HEK293T cells; IP lysis buffer with protease inhibitors, beads overnight, western blot
[3] = molecular target: SOS1, endogenous, Miapaca2 cells (human (endogenous in Miapaca2)) (UniProt Q07889); assay: co-IP; endogenous proteins in Miapaca2 cells; IP with PPDPF or SOS1 antibody

binding [2] | Molecule | also measured
 | SOS1, endogenous, Miapaca2 cells (from UniProt Q07889 1-1333) | binding [1]: binds
binds | SOS1, exogenous, in 293T cells (from UniProt Q07889 1-1333) | 
binds | SOS1^Cat, in 293T cells (from UniProt Q07889 566-1046) (domain or fragment) | 
 | PPDPF, recombinant (natural protein, UniProt Q9H3Y8 1-114, looked up, Pancreatic progenitor cell differentiation and proliferation factor (PPDPF); subcloned into pGEX-4T-1; The methods say that the beads were incubated with thrombin; also called PPDPF recombinant protein; source: E. coli BL21, purified (GST beads)) MAAIPSSGSLVATHDYYRRRLGSTSSNSSCSSTECPGEAIPHPPGLPKADPGHWWASFFFGKSTLPFMATVLESAEHSEPPQASSSMTACGLARDAPRKQPGGQSSTASAGPPS | binding [3]: binds
